The target in this assay is acetylated wild type tau protein (tau protein in which the 280th amino acid lysine is acetylated) (human) (UniProt P10636). In words: plate assay as drawn: capture Ab 1ug/well, antigen titrated, unit of the antigen amount not given.

Chains of the proteins cited; added tags and fusions are not shown. Lines headed by an entry give the natural chain unless they say otherwise; changes in a name come on top.
UniProt P10636: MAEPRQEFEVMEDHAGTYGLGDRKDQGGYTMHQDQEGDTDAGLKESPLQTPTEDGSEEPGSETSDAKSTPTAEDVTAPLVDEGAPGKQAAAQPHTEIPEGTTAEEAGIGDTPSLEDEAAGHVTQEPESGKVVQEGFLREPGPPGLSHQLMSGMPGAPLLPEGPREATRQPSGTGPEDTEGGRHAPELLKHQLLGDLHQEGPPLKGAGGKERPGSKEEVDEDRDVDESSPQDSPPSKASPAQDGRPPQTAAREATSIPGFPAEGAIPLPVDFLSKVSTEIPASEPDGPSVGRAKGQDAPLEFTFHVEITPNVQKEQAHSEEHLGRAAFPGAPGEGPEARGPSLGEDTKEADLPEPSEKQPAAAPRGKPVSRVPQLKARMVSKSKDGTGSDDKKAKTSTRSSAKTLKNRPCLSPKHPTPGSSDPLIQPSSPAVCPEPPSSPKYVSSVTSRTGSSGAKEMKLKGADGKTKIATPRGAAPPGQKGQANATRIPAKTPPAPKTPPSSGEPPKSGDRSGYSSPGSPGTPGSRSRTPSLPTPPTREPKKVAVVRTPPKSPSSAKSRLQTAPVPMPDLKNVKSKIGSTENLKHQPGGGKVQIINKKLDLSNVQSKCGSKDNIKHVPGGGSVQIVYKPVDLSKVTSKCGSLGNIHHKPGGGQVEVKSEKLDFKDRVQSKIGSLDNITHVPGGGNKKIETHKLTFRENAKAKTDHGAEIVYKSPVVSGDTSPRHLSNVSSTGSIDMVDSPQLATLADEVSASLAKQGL

These are yes or no findings as the source states them, for the method shown. Some results given as binding are weak or reduced against the parent protein; the word gives no strength.

B1: ADEL-Y01h01_v01 antibody (antibody, V domains shown)
VH: EVQLQESGPGLVKPSQTLSLTCTVSGDSITSGYWNWIRQPPGKGLEYIGYIRYSGRTYYNPSLKSRVTISRDTSKNQFSLKLSSVTAADTAVYYCASVYFTYWGQGTLVTVSS
VL: DVVMTQSPLSLPVTLGQPASISCKSSQSLLDSDGKTYLNWFQQRPGQSPKRLISLVSKLDSGVPDRFSGSGSGTDFTLKISRVEAEDVGVYYCWQGSHFPYTFGQGTKLEIK
For B1, the binding result was “binds”.
